Source: the supplement of paper PMC12067093, “Discovery and optimisation of a covalent ligand for TRIM25 and its application to targeted protein ubiquitination” (Chemical Science, 2025)
The list shows a part of the results.

Sequences of proteins named here, by UniProt entry; tags and fusion partners are left off. A change or cut given only in a name is not applied to a line headed by its entry.
UniProt Q709C8: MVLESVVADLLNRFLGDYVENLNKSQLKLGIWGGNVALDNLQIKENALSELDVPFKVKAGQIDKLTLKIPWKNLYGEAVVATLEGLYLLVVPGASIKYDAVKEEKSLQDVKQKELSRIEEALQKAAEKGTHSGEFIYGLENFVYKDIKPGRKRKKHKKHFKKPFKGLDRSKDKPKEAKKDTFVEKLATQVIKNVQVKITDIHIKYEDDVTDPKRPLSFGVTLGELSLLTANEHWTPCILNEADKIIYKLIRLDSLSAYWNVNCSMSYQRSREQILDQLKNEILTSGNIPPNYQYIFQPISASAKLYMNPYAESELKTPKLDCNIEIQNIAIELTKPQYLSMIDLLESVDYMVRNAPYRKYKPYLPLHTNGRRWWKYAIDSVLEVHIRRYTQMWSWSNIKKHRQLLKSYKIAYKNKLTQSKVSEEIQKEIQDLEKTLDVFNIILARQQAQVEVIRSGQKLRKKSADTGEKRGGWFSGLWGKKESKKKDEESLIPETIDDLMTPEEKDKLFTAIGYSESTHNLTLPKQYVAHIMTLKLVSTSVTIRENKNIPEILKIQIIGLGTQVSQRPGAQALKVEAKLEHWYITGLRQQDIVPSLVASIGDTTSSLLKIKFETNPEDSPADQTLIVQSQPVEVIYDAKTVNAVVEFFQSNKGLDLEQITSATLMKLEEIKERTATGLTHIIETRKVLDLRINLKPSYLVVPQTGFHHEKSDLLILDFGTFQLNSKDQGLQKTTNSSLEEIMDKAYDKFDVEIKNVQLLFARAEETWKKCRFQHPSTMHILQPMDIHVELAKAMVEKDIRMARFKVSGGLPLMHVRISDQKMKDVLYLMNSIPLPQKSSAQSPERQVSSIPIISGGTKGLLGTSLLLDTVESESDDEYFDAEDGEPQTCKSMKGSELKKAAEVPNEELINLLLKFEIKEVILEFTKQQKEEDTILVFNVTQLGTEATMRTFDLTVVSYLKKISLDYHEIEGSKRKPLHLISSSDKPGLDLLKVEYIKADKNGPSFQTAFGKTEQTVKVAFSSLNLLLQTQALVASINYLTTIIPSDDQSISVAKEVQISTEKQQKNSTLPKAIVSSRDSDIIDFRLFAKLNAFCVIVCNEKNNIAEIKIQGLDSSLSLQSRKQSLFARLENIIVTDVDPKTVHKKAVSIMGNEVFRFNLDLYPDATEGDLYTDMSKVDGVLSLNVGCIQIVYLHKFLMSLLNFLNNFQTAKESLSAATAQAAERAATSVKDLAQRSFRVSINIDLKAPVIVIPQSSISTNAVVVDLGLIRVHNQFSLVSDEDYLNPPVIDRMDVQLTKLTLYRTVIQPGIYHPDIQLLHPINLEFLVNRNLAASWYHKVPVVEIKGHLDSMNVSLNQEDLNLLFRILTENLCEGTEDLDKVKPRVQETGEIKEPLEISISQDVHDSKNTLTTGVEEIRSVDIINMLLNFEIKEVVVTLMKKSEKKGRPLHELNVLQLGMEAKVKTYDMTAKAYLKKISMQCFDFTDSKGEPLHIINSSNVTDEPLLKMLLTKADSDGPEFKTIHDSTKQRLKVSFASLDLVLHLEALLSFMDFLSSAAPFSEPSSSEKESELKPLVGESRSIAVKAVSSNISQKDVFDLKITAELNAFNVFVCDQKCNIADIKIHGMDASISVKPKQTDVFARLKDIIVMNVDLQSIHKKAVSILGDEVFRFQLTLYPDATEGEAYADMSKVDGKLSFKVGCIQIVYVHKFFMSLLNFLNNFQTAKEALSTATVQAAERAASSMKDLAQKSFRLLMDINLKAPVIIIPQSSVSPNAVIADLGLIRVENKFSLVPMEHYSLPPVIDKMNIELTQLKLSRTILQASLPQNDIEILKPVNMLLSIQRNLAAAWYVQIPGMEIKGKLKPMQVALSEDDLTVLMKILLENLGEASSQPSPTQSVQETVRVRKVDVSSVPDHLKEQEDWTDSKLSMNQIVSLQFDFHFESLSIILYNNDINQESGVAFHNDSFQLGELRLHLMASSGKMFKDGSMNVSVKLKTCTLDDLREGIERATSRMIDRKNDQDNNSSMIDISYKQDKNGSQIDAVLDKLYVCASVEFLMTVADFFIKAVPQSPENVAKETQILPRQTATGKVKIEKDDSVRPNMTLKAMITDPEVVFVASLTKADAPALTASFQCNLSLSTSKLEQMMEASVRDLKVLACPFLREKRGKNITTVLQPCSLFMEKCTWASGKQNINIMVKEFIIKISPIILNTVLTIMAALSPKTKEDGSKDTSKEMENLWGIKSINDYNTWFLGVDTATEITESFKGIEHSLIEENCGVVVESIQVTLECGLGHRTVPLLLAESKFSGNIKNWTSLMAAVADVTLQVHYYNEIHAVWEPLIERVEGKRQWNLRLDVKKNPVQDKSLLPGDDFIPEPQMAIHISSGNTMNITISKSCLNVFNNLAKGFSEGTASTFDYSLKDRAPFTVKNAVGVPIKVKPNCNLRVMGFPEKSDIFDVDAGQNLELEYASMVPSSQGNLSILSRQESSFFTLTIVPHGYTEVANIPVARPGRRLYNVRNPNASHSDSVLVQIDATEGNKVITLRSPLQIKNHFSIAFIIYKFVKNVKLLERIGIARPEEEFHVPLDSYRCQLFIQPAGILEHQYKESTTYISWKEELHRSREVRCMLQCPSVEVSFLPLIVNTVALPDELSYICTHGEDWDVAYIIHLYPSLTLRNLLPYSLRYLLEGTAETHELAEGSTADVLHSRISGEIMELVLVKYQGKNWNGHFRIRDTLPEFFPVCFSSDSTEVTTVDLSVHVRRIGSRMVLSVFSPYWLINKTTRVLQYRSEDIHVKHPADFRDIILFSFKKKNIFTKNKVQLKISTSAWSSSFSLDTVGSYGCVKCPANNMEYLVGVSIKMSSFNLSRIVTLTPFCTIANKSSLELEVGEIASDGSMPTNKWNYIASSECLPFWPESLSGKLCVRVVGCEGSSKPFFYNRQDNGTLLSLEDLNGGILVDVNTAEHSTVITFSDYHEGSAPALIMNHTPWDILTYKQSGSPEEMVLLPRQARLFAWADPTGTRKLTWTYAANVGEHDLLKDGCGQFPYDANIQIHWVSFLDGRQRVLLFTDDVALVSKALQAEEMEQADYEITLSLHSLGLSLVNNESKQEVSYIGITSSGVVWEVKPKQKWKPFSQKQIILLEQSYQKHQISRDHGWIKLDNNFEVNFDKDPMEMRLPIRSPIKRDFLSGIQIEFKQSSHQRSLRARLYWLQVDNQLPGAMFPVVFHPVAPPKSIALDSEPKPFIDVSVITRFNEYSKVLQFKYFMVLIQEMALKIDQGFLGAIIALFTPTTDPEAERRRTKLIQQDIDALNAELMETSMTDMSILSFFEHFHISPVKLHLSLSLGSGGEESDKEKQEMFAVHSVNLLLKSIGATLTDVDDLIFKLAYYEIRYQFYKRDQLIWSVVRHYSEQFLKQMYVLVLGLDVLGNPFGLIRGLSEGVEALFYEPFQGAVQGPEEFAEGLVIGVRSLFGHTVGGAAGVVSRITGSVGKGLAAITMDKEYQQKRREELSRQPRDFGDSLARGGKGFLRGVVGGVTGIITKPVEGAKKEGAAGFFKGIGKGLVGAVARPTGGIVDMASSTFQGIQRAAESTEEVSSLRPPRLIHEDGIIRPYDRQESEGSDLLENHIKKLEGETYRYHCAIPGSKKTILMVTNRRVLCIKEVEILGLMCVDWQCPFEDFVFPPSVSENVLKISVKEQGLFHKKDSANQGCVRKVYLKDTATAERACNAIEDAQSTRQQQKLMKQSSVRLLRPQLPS
UniProt Q9H269: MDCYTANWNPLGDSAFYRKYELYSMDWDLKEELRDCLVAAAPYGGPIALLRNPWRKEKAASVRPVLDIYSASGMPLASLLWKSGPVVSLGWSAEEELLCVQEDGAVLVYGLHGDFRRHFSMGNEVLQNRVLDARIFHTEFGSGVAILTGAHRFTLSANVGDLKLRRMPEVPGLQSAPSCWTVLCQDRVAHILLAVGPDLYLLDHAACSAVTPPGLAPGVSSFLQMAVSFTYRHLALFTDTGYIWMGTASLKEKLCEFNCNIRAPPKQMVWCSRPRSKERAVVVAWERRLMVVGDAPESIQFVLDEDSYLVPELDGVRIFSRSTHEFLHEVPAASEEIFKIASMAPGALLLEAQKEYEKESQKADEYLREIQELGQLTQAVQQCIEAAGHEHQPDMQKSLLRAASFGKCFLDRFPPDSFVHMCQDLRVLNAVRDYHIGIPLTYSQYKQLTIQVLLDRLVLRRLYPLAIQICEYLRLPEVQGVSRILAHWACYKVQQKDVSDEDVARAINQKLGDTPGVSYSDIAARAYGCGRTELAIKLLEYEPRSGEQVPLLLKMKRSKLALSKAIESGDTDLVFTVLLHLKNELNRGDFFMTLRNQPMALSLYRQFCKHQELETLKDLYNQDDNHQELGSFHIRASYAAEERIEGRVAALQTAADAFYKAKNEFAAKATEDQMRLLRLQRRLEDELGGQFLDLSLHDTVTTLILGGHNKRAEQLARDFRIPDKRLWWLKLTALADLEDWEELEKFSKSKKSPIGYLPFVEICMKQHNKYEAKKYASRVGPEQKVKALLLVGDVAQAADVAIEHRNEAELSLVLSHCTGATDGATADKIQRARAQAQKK
UniProt Q69YN4: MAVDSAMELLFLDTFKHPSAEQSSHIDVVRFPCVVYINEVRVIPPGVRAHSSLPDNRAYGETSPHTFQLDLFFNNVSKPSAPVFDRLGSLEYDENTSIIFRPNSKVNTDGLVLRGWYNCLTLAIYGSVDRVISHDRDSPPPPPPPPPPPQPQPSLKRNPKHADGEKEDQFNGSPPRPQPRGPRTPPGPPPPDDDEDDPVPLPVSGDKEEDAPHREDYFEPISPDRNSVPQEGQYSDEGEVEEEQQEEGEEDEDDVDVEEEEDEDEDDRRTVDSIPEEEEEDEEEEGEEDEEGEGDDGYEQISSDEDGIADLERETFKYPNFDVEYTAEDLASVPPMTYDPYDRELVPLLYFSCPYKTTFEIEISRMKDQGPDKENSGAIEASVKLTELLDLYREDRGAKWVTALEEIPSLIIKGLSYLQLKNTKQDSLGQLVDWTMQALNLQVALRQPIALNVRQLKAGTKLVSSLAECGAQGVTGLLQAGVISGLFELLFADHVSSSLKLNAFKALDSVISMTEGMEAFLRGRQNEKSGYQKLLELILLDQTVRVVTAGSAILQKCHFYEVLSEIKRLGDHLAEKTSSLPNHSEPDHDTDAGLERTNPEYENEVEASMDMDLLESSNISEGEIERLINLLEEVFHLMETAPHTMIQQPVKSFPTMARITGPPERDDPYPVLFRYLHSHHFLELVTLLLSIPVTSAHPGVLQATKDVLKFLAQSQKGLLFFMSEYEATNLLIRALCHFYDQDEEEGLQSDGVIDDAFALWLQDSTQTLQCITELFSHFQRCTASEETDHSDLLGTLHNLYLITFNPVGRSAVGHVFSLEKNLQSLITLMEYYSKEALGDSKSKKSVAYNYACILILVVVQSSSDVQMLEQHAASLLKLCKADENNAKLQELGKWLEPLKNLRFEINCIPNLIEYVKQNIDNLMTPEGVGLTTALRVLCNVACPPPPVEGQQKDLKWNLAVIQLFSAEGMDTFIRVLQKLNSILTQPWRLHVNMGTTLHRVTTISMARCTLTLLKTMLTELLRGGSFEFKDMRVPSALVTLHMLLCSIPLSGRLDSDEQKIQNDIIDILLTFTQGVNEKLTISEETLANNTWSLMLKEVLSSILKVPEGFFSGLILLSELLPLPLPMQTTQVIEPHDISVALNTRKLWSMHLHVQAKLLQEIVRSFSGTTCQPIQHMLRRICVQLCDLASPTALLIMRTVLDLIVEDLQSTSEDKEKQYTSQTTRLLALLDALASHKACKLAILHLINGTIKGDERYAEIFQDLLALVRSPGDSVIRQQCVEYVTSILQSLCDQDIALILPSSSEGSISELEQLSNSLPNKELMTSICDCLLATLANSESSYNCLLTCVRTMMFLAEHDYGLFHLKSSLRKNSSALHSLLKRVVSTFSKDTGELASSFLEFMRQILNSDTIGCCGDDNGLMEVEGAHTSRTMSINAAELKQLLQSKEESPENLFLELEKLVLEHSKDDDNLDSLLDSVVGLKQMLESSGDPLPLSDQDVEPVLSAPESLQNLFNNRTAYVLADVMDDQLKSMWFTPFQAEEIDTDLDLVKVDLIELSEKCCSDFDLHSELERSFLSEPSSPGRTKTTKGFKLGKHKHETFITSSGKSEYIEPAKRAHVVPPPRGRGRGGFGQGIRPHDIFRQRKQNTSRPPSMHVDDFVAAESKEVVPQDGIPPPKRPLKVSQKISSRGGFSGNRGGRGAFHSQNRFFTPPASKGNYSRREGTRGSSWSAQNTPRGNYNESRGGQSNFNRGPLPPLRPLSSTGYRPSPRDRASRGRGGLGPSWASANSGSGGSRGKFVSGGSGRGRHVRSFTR

Compound: CC1Cc2ccccc2N1C(=O)C1CCCN(C1)C(=O)CCl (mixture of isomers) [TRIM25 ligand 11 (diastereomer mixture)]
Assay: probe-labelled cysteine peptide fold change vs DMSO (competition) (log2 fold change); higher = less target engagement (more negative = stronger competition)
Settings: THP-1, incubation time: 4 h
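Note: competitive chemoproteomic profiling in live THP-1 cells with an iodoacetamide desthiobiotin (IA-DTB) probe, comparing probe-labelled peptide intensities in compound-treated cells against DMSO-treated controls.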

**Q.** Which “probe-labelled cysteine peptide fold change” value (10 µM) does the source give for “VAT1L_Q9HCJ6_253+255_ISAEGVDIVLDCLCGDNTGK (UniProt Q9HCJ6)” here?
**A.** 0.196

**Q.** And the “probe-labelled cysteine peptide fold change” value (50 µM)?
**A.** -0.072

**Q.** How did the “probe-labelled cysteine peptide fold change” value (10 µM) turn out when “VPS39_Q96JC1_877_YPNGVVVHYFCSK (UniProt Q96JC1)” was run?
**A.** 0.0492

**Q.** What about the “probe-labelled cysteine peptide fold change” value (50 µM) of the same target?
**A.** 0.234

**Q.** With “VPS13C_Q709C8_3723_ACNAIEDAQSTR (UniProt Q709C8)” as the target, how does the “probe-labelled cysteine peptide fold change” value (10 µM) read?
**A.** -0.104

**Q.** What about the “probe-labelled cysteine peptide fold change” value (50 µM) of the same target?
**A.** -0.104

**Q.** For “VPS13C_Q709C8_2906_WNYIASSECLPFWPESLSGK (UniProt Q709C8)”, which “probe-labelled cysteine peptide fold change” value (10 µM) is on record?
**A.** -0.143

**Q.** And the “probe-labelled cysteine peptide fold change” value (50 µM)?
**A.** 0.254

**Q.** Which “probe-labelled cysteine peptide fold change” value (10 µM) does the source give for “USP7_Q93009_799_VDVIFCDK (UniProt Q93009)” here?
**A.** 0.0636

**Q.** And the “probe-labelled cysteine peptide fold change” value (50 µM)?
**A.** 0.0592

**Q.** Which results are given for “VARS_P26640_917_ADFPAGIPECGTDALR (UniProt P26640)”?
**A.** probe-labelled cysteine peptide fold change (10 µM): -0.0936; probe-labelled cysteine peptide fold change (50 µM): 0.06

**Q.** Which results are given for “VPS4A_Q9UN37_403_LLEPVVCMSDMLR (UniProt Q9UN37)”?
**A.** probe-labelled cysteine peptide fold change (10 µM): -0.0613; probe-labelled cysteine peptide fold change (50 µM): 0.0414

**Q.** Which results are given for “USP9X_Q93008_2398_CMVALFSNCPVAYQILQGNGDLK (UniProt Q93008)”?
**A.** probe-labelled cysteine peptide fold change (10 µM): 0.0393; probe-labelled cysteine peptide fold change (50 µM): 0.12

**Q.** How did the “probe-labelled cysteine peptide fold change” value (10 µM) turn out when “VCPIP1_Q96JH7_344_DGHLNKPICIAWSSSGR (UniProt Q96JH7)” was run?
**A.** -0.115

**Q.** What about the “probe-labelled cysteine peptide fold change” value (50 µM) of the same target?
**A.** 0.0325

**Q.** How did the “probe-labelled cysteine peptide fold change” value (10 µM) turn out when “VPS18_Q9P253_433_EADFCFR (UniProt Q9P253)” was run?
**A.** -0.0527

**Q.** And the “probe-labelled cysteine peptide fold change” value (50 µM)?
**A.** -0.114

**Q.** How did the “probe-labelled cysteine peptide fold change” value (10 µM) turn out when “USP8_P40818_214_RMQDYQDSCILHSLSVPEEAISPGVTASWIEAHLPDDSK (UniProt P40818)” was run?
**A.** 0.302

**Q.** And the “probe-labelled cysteine peptide fold change” value (50 µM)?
**A.** 0.254

**Q.** What does the source list for “VPS16_Q9H269_271_QMVWCSRPR (UniProt Q9H269)”?
**A.** probe-labelled cysteine peptide fold change (10 µM): -0.169; probe-labelled cysteine peptide fold change (50 µM): 0.0158

**Q.** For “VCP_P55072_209_EDEEESLNEVGYDDIGGCRK (UniProt P55072)”, which “probe-labelled cysteine peptide fold change” value (10 µM) is on record?
**A.** -0.222

**Q.** And the “probe-labelled cysteine peptide fold change” value (50 µM)?
**A.** -0.151

**Q.** Which “probe-labelled cysteine peptide fold change” value (10 µM) does the source give for “VPS16_Q9H269_408_CFLDRFPPDSFVHMCQDLR (UniProt Q9H269)” here?
**A.** 0.0533

**Q.** And the “probe-labelled cysteine peptide fold change” value (50 µM)?
**A.** 0.0687

**Q.** With “VIRMA_Q69YN4_1008_CTLTLLK (UniProt Q69YN4)” as the target, how does the “probe-labelled cysteine peptide fold change” value (10 µM) read?
**A.** 0.0168

**Q.** And the “probe-labelled cysteine peptide fold change” value (50 µM)?
**A.** 0.171

**Q.** What does the source list for “VIRMA_Q69YN4_1559_CCSDFDLHSELER (UniProt Q69YN4)”?
**A.** probe-labelled cysteine peptide fold change (10 µM): 0.0763; probe-labelled cysteine peptide fold change (50 µM): -0.104

**Q.** For “VLDLR_P98155_344_VCNQEQDCR (UniProt P98155)”, which “probe-labelled cysteine peptide fold change” value (10 µM) is on record?
**A.** 0.166

**Q.** What about the “probe-labelled cysteine peptide fold change” value (50 µM) of the same target?
**A.** 0.0149

**Q.** How did the “probe-labelled cysteine peptide fold change” value (10 µM) turn out when “VLDLR_P98155_97_CDGDPDCEDGSDESPEQCHMR (UniProt P98155)” was run?
**A.** 0.108

**Q.** And the “probe-labelled cysteine peptide fold change” value (50 µM)?
**A.** -0.0603

**Q.** With “VPS11_Q9H270_586_SDREAPGCR (UniProt Q9H270)” as the target, how does the “probe-labelled cysteine peptide fold change” value (10 µM) read?
**A.** -0.252

**Q.** And the “probe-labelled cysteine peptide fold change” value (50 µM)?
**A.** -0.0858
